No constants are given. Whether binding was seen depends on the method and setting. In cells and extracts the contact can be indirect. Some binding calls cover weakened binding; strength is not graded here. For some assays here: Tags and fused reporters may be left off the sequences shown.
Key:
Flag-PARP3^WT = molecular target: T1, Flag-PARP3^WT (UniProt Q9Y6F1); assay: co-IP; anti-Flag M2 agarose on RIPA whole cell lysates of PARP3^-/-3 LN229 cells stably expressing Flag, Flag-PARP3^WT or Flag-PARP3^HE; lysates pretreated with DNase I; 4 h at 4 °C; washes with 250 and 150 mM NaCl; blots for G9a, GLP1, Wiz
T1 sequence: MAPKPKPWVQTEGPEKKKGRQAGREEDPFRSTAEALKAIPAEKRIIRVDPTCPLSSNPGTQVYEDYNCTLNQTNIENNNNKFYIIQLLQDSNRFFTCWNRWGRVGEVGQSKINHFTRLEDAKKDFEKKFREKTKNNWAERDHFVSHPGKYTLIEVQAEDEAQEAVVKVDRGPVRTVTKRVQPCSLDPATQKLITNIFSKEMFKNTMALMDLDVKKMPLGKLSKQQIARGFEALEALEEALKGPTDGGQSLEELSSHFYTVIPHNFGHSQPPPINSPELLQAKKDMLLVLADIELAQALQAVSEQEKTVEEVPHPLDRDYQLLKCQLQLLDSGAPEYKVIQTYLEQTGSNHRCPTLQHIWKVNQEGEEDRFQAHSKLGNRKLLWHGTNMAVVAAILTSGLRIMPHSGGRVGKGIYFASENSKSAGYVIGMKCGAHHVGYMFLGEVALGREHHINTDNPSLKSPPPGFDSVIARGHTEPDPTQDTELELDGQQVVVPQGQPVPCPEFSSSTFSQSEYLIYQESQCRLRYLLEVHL

Amino acid sequences for entries named in this document (tags omitted).
UniProt O95785: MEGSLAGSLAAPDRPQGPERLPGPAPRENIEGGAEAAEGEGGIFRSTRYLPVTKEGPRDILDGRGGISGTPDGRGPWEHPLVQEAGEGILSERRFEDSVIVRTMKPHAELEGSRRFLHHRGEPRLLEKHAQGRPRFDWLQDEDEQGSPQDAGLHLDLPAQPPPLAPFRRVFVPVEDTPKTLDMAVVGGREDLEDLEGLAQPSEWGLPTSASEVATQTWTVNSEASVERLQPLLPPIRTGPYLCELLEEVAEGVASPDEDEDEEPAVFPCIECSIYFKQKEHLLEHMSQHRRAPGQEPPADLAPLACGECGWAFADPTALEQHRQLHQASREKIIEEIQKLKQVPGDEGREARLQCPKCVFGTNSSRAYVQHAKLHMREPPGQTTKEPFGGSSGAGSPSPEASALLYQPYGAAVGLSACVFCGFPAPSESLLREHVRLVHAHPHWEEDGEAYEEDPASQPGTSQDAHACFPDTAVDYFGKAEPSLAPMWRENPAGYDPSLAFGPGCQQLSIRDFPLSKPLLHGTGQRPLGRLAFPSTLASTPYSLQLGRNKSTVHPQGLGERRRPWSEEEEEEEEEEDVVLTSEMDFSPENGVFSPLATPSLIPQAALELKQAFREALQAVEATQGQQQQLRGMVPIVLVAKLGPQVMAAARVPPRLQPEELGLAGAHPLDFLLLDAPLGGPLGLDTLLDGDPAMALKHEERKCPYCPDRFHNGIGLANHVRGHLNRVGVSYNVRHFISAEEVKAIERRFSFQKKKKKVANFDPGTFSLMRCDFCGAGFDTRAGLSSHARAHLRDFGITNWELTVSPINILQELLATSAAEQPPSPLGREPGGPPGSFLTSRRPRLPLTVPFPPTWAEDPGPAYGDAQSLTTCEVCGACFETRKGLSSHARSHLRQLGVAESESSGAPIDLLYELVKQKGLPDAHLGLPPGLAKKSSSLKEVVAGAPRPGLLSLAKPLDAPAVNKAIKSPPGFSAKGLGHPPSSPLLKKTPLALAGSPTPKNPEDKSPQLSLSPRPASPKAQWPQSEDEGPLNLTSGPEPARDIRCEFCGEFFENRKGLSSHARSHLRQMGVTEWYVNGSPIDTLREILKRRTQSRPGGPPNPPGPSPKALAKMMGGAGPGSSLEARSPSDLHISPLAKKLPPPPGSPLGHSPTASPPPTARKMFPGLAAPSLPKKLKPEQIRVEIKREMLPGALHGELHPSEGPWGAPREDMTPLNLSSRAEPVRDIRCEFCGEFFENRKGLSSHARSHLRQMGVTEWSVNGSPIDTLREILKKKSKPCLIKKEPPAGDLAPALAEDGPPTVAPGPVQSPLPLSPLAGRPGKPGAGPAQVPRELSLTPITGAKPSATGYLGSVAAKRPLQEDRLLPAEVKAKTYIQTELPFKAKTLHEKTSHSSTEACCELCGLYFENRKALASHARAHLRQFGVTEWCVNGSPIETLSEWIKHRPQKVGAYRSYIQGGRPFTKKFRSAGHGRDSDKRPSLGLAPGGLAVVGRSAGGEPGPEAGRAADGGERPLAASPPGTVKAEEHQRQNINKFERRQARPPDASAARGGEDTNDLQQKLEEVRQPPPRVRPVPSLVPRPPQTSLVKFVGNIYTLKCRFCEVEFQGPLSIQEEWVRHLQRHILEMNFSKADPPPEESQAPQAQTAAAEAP

EGFP-PARP3 = molecular target: T2, EGFP-PARP3 (UniProt Q9Y6F1); assay: co-IP; EGFP-PARP3 or EGFP immunoprecipitates from HEK cells; blots for G9a and Wiz (Sup. Fig. 2a)
T2 sequence: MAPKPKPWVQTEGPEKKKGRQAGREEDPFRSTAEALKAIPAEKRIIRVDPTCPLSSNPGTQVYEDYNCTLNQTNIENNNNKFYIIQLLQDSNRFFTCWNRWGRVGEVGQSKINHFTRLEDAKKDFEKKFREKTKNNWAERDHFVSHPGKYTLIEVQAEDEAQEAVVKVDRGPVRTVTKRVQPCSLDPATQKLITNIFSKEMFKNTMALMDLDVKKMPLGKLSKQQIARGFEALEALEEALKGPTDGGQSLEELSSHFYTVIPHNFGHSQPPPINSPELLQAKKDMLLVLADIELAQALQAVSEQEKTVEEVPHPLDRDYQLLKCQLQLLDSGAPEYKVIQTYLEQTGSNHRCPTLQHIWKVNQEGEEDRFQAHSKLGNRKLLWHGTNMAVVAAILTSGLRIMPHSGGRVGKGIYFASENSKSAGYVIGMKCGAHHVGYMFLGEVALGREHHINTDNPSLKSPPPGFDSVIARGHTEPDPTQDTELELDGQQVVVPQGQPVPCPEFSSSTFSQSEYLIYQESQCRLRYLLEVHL

EGFP-G9a [1] = molecular target: EGFP-G9a (UniProt Q96KQ7); assay: co-IP; EGFP-G9a or EGFP transfected into WT or PARP3^-/-3 LN229 cells; GFP-binding agarose beads (Chromotek); DNase I-treated RIPA lysates; blots for Wiz and GLP1
EGFP-G9a [2] = molecular target: EGFP-G9a (UniProt Q96KQ7); assay: co-IP; reciprocal: EGFP-G9a or EGFP as bait, transfected into PARP3^-/-3-Flag-PARP3^WT LN229 cells; GFP-binding agarose beads (Chromotek); DNase I-treated RIPA lysates (Sup. Fig. 2b)
EGFP-G9a, Q96KQ7 = molecular target: T3, EGFP-G9a, Q96KQ7; assay: co-IP; EGFP-G9a or EGFP transfected into WT or PARP3^-/-3 LN229 cells; GFP-binding agarose beads (Chromotek); DNase I-treated RIPA lysates; blots for Wiz and GLP1; conditions: remark: other sources report otherwise
T3 chain: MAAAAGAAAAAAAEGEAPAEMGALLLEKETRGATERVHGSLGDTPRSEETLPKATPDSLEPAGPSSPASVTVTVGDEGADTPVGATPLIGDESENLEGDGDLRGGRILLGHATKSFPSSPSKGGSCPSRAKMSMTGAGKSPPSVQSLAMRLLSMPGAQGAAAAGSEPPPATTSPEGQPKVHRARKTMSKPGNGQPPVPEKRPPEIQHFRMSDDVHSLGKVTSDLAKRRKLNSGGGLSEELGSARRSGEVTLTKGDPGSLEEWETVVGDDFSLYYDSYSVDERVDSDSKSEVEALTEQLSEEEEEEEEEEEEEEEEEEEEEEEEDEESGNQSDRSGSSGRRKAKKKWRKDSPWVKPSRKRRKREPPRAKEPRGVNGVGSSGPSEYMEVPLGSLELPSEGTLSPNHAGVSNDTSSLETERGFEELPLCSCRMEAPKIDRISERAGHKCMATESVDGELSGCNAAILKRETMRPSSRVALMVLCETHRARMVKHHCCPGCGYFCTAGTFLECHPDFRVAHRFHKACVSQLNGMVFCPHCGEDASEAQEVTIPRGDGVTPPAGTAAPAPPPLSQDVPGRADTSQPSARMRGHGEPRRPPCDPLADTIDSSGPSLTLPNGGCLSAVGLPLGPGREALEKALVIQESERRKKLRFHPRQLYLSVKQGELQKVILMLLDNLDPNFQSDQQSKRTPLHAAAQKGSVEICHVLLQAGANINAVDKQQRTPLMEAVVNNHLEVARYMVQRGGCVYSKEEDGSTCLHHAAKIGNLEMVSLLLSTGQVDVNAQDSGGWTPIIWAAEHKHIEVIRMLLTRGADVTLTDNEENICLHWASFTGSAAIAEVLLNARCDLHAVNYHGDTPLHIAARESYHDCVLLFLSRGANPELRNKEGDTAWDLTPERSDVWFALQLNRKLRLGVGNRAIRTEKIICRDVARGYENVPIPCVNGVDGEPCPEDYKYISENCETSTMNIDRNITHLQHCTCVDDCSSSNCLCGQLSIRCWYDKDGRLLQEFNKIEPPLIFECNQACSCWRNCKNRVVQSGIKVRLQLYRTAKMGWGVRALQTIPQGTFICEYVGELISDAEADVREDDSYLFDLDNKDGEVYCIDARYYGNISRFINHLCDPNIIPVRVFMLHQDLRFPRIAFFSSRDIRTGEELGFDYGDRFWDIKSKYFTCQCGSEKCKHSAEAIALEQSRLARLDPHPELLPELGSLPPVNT

## G9a (from UniProt Q96KQ7 1-1210) (enzyme)
Flag-PARP3^WT
  binding: binds

## G9a (in HEK cells) (from UniProt Q96KQ7 1-1210) (enzyme)
EGFP-PARP3
  binding: binds

## GLP1 (from UniProt Q9H9B1 1-1298) (enzyme)
Flag-PARP3^WT
  binding: binds

## Widely Interspaced Zinc Finger (WIZ) (from UniProt O95785 1-1651)
Flag-PARP3^WT
  binding: binds
EGFP-G9a [1]
  binding: binds

## Wiz (in HEK cells) (from UniProt O95785 1-1651)
EGFP-PARP3
  binding: binds

B1: Flag-PARP3^WT (enzyme, UniProt Q9Y6F1 1-533)
chain: MAPKPKPWVQTEGPEKKKGRQAGREEDPFRSTAEALKAIPAEKRIIRVDPTCPLSSNPGTQVYEDYNCTLNQTNIENNNNKFYIIQLLQDSNRFFTCWNRWGRVGEVGQSKINHFTRLEDAKKDFEKKFREKTKNNWAERDHFVSHPGKYTLIEVQAEDEAQEAVVKVDRGPVRTVTKRVQPCSLDPATQKLITNIFSKEMFKNTMALMDLDVKKMPLGKLSKQQIARGFEALEALEEALKGPTDGGQSLEELSSHFYTVIPHNFGHSQPPPINSPELLQAKKDMLLVLADIELAQALQAVSEQEKTVEEVPHPLDRDYQLLKCQLQLLDSGAPEYKVIQTYLEQTGSNHRCPTLQHIWKVNQEGEEDRFQAHSKLGNRKLLWHGTNMAVVAAILTSGLRIMPHSGGRVGKGIYFASENSKSAGYVIGMKCGAHHVGYMFLGEVALGREHHINTDNPSLKSPPPGFDSVIARGHTEPDPTQDTELELDGQQVVVPQGQPVPCPEFSSSTFSQSEYLIYQESQCRLRYLLEVHL
EGFP-G9a [2]
  binding: binds

B2: GLP1, Q9H9B1 1-1298 (enzyme)
chain: MAAADAEAVPARGEPQQDCCVKTELLGEETPMAADEGSAEKQAGEAHMAADGETNGSCENSDASSHANAAKHTQDSARVNPQDGTNTLTRIAENGVSERDSEAAKQNHVTADDFVQTSVIGSNGYILNKPALQAQPLRTTSTLASSLPGHAAKTLPGGAGKGRTPSAFPQTPAAPPATLGEGSADTEDRKLPAPGADVKVHRARKTMPKSVVGLHAASKDPREVREARDHKEPKEEINKNISDFGRQQLLPPFPSLHQSLPQNQCYMATTKSQTACLPFVLAAAVSRKKKRRMGTYSLVPKKKTKVLKQRTVIEMFKSITHSTVGSKGEKDLGASSLHVNGESLEMDSDEDDSEELEEDDGHGAEQAAAFPTEDSRTSKESMSEADRAQKMDGESEEEQESVDTGEEEEGGDESDLSSESSIKKKFLKRKGKTDSPWIKPARKRRRRSRKKPSGALGSESYKSSAGSAEQTAPGDSTGYMEVSLDSLDLRVKGILSSQAEGLANGPDVLETDGLQEVPLCSCRMETPKSREITTLANNQCMATESVDHELGRCTNSVVKYELMRPSNKAPLLVLCEDHRGRMVKHQCCPGCGYFCTAGNFMECQPESSISHRFHKDCASRVNNASYCPHCGEESSKAKEVTIAKADTTSTVTPVPGQEKGSALEGRADTTTGSAAGPPLSEDDKLQGAASHVPEGFDPTGPAGLGRPTPGLSQGPGKETLESALIALDSEKPKKLRFHPKQLYFSARQGELQKVLLMLVDGIDPNFKMEHQNKRSPLHAAAEAGHVDICHMLVQAGANIDTCSEDQRTPLMEAAENNHLEAVKYLIKAGALVDPKDAEGSTCLHLAAKKGHYEVVQYLLSNGQMDVNCQDDGGWTPMIWATEYKHVDLVKLLLSKGSDINIRDNEENICLHWAAFSGCVDIAEILLAAKCDLHAVNIHGDSPLHIAARENRYDCVVLFLSRDSDVTLKNKEGETPLQCASLNSQVWSALQMSKALQDSAPDRPSPVERIVSRDIARGYERIPIPCVNAVDSEPCPSNYKYVSQNCVTSPMNIDRNITHLQYCVCIDDCSSSNCMCGQLSMRCWYDKDGRLLPEFNMAEPPLIFECNHACSCWRNCRNRVVQNGLRARLQLYRTRDMGWGVRSLQDIPPGTFVCEYVGELISDSEADVREEDSYLFDLDNKDGEVYCIDARFYGNVSRFINHHCEPNLVPVRVFMAHQDLRFPRIAFFSTRLIEAGEQLGFDYGERFWDIKGKLFSCRCGSPKCRHSSAALAQRQASAAQEAQEDGLPDTSSAAAADPL
EGFP-G9a, Q96KQ7
  binding: binds
